# Where “and” joins values, the source holds several entries; their conditions need not be identical. Equal entries are not always repeated. Where a SMILES comes first, the peptide text is derived from it. [ ]: non-standard residue; d: D form. Hyp = O=C(O)[C@@H]1C[C@@H](O)CN1
# Tested on: IL-10
# Assay: Example 9 Luminex, LPS hPBMCs: IL-10
# Assay type: cell-based, human
# Details: Bead IL-10
# Method: Treatment Human PBMCs were pretreated with YY-101, YDE-011 and YDE-043 or reference compound; Xiidra® at various concentration (ranging from 1 nM to 100 uM) for 2 h before stimulation. An equal volume of 0.5% DMSO was used as a vehicle control. Then, the cells were treated with LPS at 5 ug/ml. The supernatants from treated cells were harvested at 24 h and placed in a 96 well for Luminex cytokine & chemokine profiling using a Luminex 200 multiplex assay (Luminex; R&D system, USA).
# The main study arm with triplicate wells per group in a 24-well plate: • 1. Blank • 2. PBMC: 0.5% DMSO • 3. PBMC+LPS (5 ug/ml) • 4. PBMC+YY-101 100 uM • 5. PBMC+YY-101 10 uM • 6. PBMC+YY-101 1 uM • 7. PBMC+YY-101 0.1 uM • 8. PBMC+YY-101 0.01 uM • 9. PBMC+LPS (5 ug/ml)+Xiidra®100 uM • 10. PBMC+LPS (5 ug/ml)+Xiidra® 10 uM • 11. PBMC+LPS (5 ug/ml)+Xiidra® 1 uM • 12. PBMC+LPS (5 ug/ml)+Xiidra®0.1 uM • 13. PBMC+LPS (5 ug/ml)+Xiidra®0.01 uM • 14. PBMC+LPS (5 ug/ml)+Xiidra®0.001 uM • 15. PBMC+LPS (5 ug/ml)+YY-101 100 uM • 16. PBMC+LPS (5 ug/ml)+YY-101 10 uM • 17. PBMC+LPS (5 ug/ml)+YY-101 1 uM • 18. PBMC+LPS (5 ug/ml)+YY-101 0.1 uM • 19. PBMC+LPS (5 ug/ml)+YY-101 0.01 uM • 20. PBMC+LPS (5 ug/ml)+YY-101 0.001 uM • 21. PBMC+LPS (5 ug/ml)+YDE-011 100 uM • 22. PBMC+LPS (5 ug/ml)+YDE-011 10 uM • 23. PBMC+LPS (5 ug/ml)+YDE-011 1 uM • 24. PBMC+LPS (5 ug/ml)+YDE-011 0.1 uM • 25. PBMC+LPS (5 ug/ml)+YDE-011 0.01 uM • 26. PBMC+LPS (5 ug/ml)+YDE-011 0.001 uM • 27. PBMC+LPS (5 ug/ml)+YDE-043 100 uM • 28. PBMC+LPS (5 ug/ml)+YDE-043 10 uM • 29. PBMC+LPS (5 ug/ml)+YDE-043 1 uM • 30. PBMC+LPS (5 ug/ml)+YDE-043 0.1 uM • 31. PBMC+LPS (5 ug/ml)+YDE-043 0.01 uM • 32. PBMC+LPS (5 ug/ml)+YDE-043 0.001 uM
# Multiplex assay was used to measure 30 cytokines and chemokines. The 1:2, 1:10 and 1:200 diluted cell supernatant and serial dilution of the standard were dispensed into a 96 well plate at 50 ul/well. Then, the pre-mixed cocktail of antibody-coated magnetic beads was dispensed at 50 ul/well and incubated at room temperature for 2 h in a horizontal orbital microplate shaker at 800±500 rpm. The beads were washed using a magnetic device to prevent loss. The biotin-antibody was dispensed in 50 ul of each well and incubated at room temperature for 1 h in a shaker at 800±500 rpm. After washing, streptavidin-PE was added at 50 ul/well and incubated at room temperature for 30 min in a shaker under the same conditions. Finally, after washing, wash buffer (100 ul/well) was added to the plate and incubated in a shaker for 2 min. The Luminex™ 200 setting were set according to the manufacturer's protocol. The data was calculated with a standard five-parameter logistic nonlinear regression analysis of the data (xPonent software 4.2, USA). The levels of cytokine/chemokine are normalized to the live cell counts (1×10^5 cells/mL) and presented as concentrations per mL (pg/mL or ng/mL).
# [1] = PBMC + LPS(5 ug/ml) + test article 0.001 uM, Mean
# [2] = PBMC + LPS(5 ug/ml) + test article 0.001 uM, single replicates
# [3] = PBMC + LPS(5 ug/ml) + test article 0.01 uM, Mean
# [4] = PBMC + LPS(5 ug/ml) + test article 0.01 uM, single replicates
# [5] = PBMC + LPS(5 ug/ml) + test article 0.1 uM, Mean
# [6] = PBMC + LPS(5 ug/ml) + test article 0.1 uM, single replicates
# [7] = PBMC + LPS(5 ug/ml) + test article 1 uM, Mean
# [8] = PBMC + LPS(5 ug/ml) + test article 1 uM, single replicates
# [9] = PBMC + LPS(5 ug/ml) + test article 10 uM, Mean
# [10] = PBMC + LPS(5 ug/ml) + test article 10 uM, single replicates
# [11] = PBMC + LPS(5 ug/ml) + test article 100 uM, Mean
# [12] = PBMC + LPS(5 ug/ml) + test article 100 uM, single replicates
smiles,measurement,setting,value
CC(C)C[C@H](NC(=O)[C@H](CCC(N)=O)NC(=O)CNC(=O)[C@@H]1C[C@@H](O)CN1)C(=O)NCC(=O)O [YDE-043] (H-[Hyp]GQLG-OH; N-terminus and C-terminus assumed),MFI,[1],173.4
same,MFI,[2],194.3 and 168.3 and 157.8
same,MFI,[3],200.8
same,MFI,[4],200.8 and 213.3 and 188.3
same,MFI,[5],184.9
same,MFI,[6],190.3 and 178.3 and 186.3
same,MFI,[7],188.6
same,MFI,[8],189.3 and 178.3 and 198.3
same,MFI,[9],167.9
same,MFI,[10],182.3 and 153.8 and 167.8
same,MFI,[11],49.3
same,MFI,[12],47.8 and 50.8
CC(C)C[C@H](NC(=O)CNC(=O)[C@H](CC(=O)O)NC(=O)[C@H](CCC(N)=O)NC(=O)CNC(=O)[C@@H]1C[C@@H](O)CN1)C(=O)N[C@@H](C)C(=O)NCC(=O)N1CCC[C@H]1C(=O)N[C@@H](CCCCN)C(=O)O [YY-101] (H-[Hyp]GQDGLAGPK-OH; N-terminus and C-terminus assumed),MFI,[1],298.8
same,MFI,[2],315.3 and 305.8 and 275.3
same,MFI,[3],314.1
same,MFI,[4],308.8 and 313.8 and 319.8
same,MFI,[5],273.6
same,MFI,[6],259.8 and 283.8 and 277.3
same,MFI,[7],329.3
same,MFI,[8],357.3 and 302.8 and 327.8
same,MFI,[9],295.3
same,MFI,[10],287.8 and 342.3 and 255.8
same,MFI,[11],86.1
same,MFI,[12],86.8 and 83.8 and 87.8
same,MFI,"PBMC + test article 0.01 uM, no LPS, Mean",1.3
same,MFI,"PBMC + test article 0.01 uM, no LPS, single replicates",0.8 and 1.8
same,MFI,"PBMC + test article 0.1 uM, no LPS, Mean",1.3
same,MFI,"PBMC + test article 0.1 uM, no LPS, single replicates",0.8 and 1.8
same,MFI,"PBMC + test article 1 uM, no LPS, Mean",0.8
same,MFI,"PBMC + test article 1 uM, no LPS, single replicates",0.8
same,MFI,"PBMC + test article 10 uM, no LPS, Mean",4.5
same,MFI,"PBMC + test article 10 uM, no LPS, single replicates",7.8 and 1.3
same,MFI,"PBMC + test article 100 uM, no LPS, Mean",1.3
same,MFI,"PBMC + test article 100 uM, no LPS, single replicates",2.8 and −0.3
CC(C)C[C@H](NC(=O)CNC(=O)[C@H](CC(C)C)NC(=O)[C@H](CCC(N)=O)NC(=O)CNC(=O)[C@@H]1C[C@@H](O)CN1)C(=O)N[C@@H](C)C(=O)NCC(=O)N1CCC[C@H]1C(=O)N[C@@H](CCCCN)C(=O)O [YDE-011] (H-[Hyp]GQLGLAGPK-OH),MFI,[1],172.1
same,MFI,[2],163.3 and 179.3 and 173.8
same,MFI,[3],181.9
same,MFI,[4],192.8 and 186.8 and 166.3
same,MFI,[5],175.6
same,MFI,[6],168.8 and 181.8 and 176.3
same,MFI,[7],179.6
same,MFI,[8],179.3 and 182.8 and 176.8
same,MFI,[9],169.9
same,MFI,[10],168.8 and 166.3 and 174.8
same,MFI,[11],50.4
same,MFI,[12],43.8 and 51.8 and 55.8
